# Measured values reported in publication PMC5884641.
# Chains of the proteins cited; added tags and fusions are not shown. Lines headed by an entry give the natural chain unless they say otherwise; changes in a name come on top. Residues count along the entry.
# UniProt P11021, residues 19-654: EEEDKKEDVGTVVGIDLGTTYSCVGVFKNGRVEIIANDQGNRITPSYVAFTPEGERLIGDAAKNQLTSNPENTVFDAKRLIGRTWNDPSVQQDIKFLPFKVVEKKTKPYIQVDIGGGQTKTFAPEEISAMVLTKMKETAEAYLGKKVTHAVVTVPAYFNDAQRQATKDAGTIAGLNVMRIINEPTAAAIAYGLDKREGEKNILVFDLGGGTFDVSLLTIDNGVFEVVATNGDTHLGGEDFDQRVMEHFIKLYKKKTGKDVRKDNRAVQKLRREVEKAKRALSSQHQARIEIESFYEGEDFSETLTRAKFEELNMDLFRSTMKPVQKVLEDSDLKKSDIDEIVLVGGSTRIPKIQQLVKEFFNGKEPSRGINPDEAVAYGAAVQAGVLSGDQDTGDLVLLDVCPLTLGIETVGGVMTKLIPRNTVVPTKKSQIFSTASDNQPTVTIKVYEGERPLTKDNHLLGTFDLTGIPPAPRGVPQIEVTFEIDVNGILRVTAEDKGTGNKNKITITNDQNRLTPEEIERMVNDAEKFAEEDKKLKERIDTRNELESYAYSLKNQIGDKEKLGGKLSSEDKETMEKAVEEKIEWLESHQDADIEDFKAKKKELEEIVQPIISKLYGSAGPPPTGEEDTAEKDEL
# UniProt P30051: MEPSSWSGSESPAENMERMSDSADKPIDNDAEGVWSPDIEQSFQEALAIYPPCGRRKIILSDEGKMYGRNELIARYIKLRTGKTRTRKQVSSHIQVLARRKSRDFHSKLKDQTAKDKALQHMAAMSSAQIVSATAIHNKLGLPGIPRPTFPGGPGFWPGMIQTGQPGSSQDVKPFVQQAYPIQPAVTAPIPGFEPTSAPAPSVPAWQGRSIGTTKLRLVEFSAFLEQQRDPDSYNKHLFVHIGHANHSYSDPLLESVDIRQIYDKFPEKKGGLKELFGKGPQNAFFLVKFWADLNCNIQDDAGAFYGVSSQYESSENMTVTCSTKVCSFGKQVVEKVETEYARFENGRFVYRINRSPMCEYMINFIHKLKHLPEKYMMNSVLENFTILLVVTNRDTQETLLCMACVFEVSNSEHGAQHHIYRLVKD
# UniProt O70370: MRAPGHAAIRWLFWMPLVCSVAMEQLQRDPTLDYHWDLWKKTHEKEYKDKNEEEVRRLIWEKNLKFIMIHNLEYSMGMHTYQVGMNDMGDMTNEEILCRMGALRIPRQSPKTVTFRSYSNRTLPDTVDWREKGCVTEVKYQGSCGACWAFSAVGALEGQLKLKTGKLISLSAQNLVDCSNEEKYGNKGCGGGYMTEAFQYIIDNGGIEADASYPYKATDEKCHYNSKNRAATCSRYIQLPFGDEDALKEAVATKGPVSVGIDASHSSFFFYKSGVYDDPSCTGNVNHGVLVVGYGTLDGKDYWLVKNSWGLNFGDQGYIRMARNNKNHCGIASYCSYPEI
# UniProt Q9EQU5: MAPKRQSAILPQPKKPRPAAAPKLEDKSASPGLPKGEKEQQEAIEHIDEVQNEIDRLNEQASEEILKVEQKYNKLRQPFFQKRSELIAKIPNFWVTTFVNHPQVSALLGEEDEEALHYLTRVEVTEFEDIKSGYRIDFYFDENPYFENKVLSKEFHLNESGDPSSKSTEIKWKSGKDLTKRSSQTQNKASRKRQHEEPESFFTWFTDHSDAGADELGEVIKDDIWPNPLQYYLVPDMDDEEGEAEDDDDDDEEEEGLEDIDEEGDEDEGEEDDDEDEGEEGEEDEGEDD
# UniProt P17879: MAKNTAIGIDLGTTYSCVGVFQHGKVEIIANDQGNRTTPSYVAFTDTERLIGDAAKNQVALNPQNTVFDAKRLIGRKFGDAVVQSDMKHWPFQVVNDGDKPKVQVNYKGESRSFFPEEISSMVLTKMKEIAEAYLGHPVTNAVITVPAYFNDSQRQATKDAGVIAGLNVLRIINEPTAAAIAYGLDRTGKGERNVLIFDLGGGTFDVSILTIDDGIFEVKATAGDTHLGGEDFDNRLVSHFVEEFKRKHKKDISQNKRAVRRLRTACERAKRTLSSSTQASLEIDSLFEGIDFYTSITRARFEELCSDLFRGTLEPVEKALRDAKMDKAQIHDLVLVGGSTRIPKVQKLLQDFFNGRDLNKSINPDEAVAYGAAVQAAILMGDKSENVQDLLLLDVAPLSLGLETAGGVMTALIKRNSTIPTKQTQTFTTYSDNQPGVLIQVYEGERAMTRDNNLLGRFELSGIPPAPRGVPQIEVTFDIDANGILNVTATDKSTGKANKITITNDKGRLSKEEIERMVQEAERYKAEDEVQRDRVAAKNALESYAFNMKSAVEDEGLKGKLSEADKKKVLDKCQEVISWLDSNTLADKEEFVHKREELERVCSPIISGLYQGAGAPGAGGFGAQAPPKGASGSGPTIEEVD
# Results are given in words; binding and its absence hold for the method and conditions named. Binding seen in cells or lysates may run through a third protein. These calls come from enrichment with a bait or labelling near it, and not all partners need be listed.
# Biological target: biotinylated-His-GRP78 (UniProt P11021)
# Assay: affinity purification with mass spectrometry; RAW264.7 cells treated with 40 nM biotinylated-His-GRP78 for 30 min, cross-linked with 2 mM DTSSP at room temperature, lysed; streptavidin-agarose 2 h at 4 C, eluted with 0.1 M glycine HCl pH 2.5; mass spectrometry; top eight of 191 proteins listed; only the target purified
row,Molecule,binding
1,Tead1 (from UniProt P30051 1-426),binds
2,Ctss (from UniProt O70370),binds
3,"LAMP2 (protein, UniProt P17047 26-415) LIVNLTDSKGTCLYAEWEMNFTITYETTNQTNKTITIAVPDKATHDGSSCGDDRNSAKIMIQFGFAVSWAVNFTKEASHYSIHDIVLSYNTSDSTVFPGAVAKGVHTVKNPENFKVPLDVIFKCNSVLTYNLTPVVQKYWGIHLQAFVQNGTVSKNEQVCEEDQTPTTVAPIIHTTAPSTTTTLTPTSTPTPTPTPTPTVGNYSIRNGNTTCLLATMGLQLNITEEKVPFIFNINPATTNFTGSCQPQSAQLRLNNSQIKYLDFIFAVKNEKRFYLKEVNVYMYLANGSAFNISNKNLSFWDAPLGSSYMCNKEQVLSVSRAFQINTFNLKVQPFNVTKGQYSTAQDCSADEDNFLVPIAVGAALGGVLILVLLAYFIGLKRHHTGYEQF",binds

# Results, then the molecule that gave them:
row,binding,Molecule
1,binds,Set (from UniProt Q9EQU5 1-289)
2,binds,Hspa1b (from UniProt P17879 1-642)
